Reference: publication PMC5338318
No constants are given. Whether binding was seen depends on the method and setting. For some assays here: In cells and extracts the contact can be indirect. Some entries that bind do so weakly or less than the wild type. Where a sequence is shown, tags or fusion partners need not be part of it. One block for each binder: values may come before it.

Columns and labels:
[1] = target: T1, RUG3-YFP^N (RCC1/UVR8/GEF-Like 3 fused to the N-terminal half of YFP) (Arabidopsis thaliana) (UniProt Q9FJG9); assay: split reporter; BiFC; RUG3-YFP^N and ATM-N-YFP^C co-expressed in N. benthamiana leaves by Agrobacterium injection; YFP fluorescence in epidermal cells after 2 days, confocal microscope; MitoTracker staining
T1 sequence: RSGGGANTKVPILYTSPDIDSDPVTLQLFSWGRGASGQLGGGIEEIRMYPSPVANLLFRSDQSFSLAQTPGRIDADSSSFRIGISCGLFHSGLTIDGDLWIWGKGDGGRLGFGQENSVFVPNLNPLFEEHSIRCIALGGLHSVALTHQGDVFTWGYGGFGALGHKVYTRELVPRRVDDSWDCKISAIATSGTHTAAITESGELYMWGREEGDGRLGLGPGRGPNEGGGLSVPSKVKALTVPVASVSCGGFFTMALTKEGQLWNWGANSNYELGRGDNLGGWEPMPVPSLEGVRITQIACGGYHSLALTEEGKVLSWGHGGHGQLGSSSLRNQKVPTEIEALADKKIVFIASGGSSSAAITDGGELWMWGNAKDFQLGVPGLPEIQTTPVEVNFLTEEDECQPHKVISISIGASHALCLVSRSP

[2] = target: T2, GST-RUG3 fusion protein (Arabidopsis thaliana) (UniProt Q9FJG9); assay: pull-down; equal amounts of purified MBP-ATM-N added to tubes with GSH-Sepharose resin plus GST or GST-RUG3; detected with anti-MBP antibodies; both purified
T2 sequence: T1 sequence

binding [1]: binds
B1: ATM-N-YFP^C (N-terminal region of ataxia telangiectasia mutated fused to the C-terminal half of YFP) (domain or fragment, UniProt Q9M3G7 1-300)
chain: MKLQNPDKKTLREGFSQESSVVALDSGVLAMSGLKCDGKFPVKDVLMEEGGDKVRKIQVSGGNISLVVDFSGARTSSNNFFESNASCVNENLVKGNGYREDETQEFLVGNLVWVMTKYKKWWPGEVVDFKADAKESFMVRSIGQSHLVSWFASSKLKPFKESFEQVLNQRNDNGFFDALQKAMSLLSNSLKLDMTCSCIADGNGIVSAQNITTRKNKPLILREFSVDRLEPKEFVTQLKNIAKCVLNAGVLESTVMQSQLSAFYTLFGHKQIPMAQLHENEGRKSFTAKMSDSKFIGSPS

binding [2]: binds
B2: MBP-ATM-N (N-terminus of ataxia telangiectasia mutated fused to MBP) (domain or fragment, UniProt Q9M3G7 1-300)
chain: B1 chain
